PubChem BioAssay AID1224830 | NIAID | 2016
Test: 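Host factors that control LPS-induced TNF expression in human macrophages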 (primary screen). System: human THP-1 monocytic leukaemia cells, TNF dual-luciferase reporter clone, PMA-differentiated to macrophage-like cells. Knock-down reagent: siRNA pool against human genes, 50 nM. Timing: LPS for 4 h, given about 3 days after siRNA transfection. Treatment: bacterial LPS (TLR4 ligand), 10 ng/ml. Detection: 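TNF firefly reporter luminescence divided by renilla, normalised to the plate median, then turned into a robust z-score for each replicate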. Reading the numbers: TNF reporter robust z-score: higher = stronger TNF reporter response to LPS. Rule for the call: 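Each well counts as active if its z-score is over 2.8 or under -1.5; controls are left without a call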.
Here is one part, drawn at random, of about 18,000 reagents tested. About 2,900 of them (16%) count as active. 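Calls are made per well; low scores hint the gene aids the LPS response, high scores that it dampens it.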 Reagents against one gene are numbered here. Repeated entries: four replicate wells of each siRNA pool.

target gene,reagent,TNF reporter robust z-score,Call
DNAJC27,1,-0.85,inactive
DNAJC27,1,-0.95,inactive
DNAJC27,1,-1.02,inactive
DNAJC27,1,-0.75,inactive
ZNF324B,1,0.59,inactive
ZNF324B,1,-0.27,inactive
ZNF324B,1,0.11,inactive
ZNF324B,1,-0.14,inactive
LGI1,1,-0.75,inactive
LGI1,1,-0.59,inactive
LGI1,1,-0.5,inactive
LGI1,1,-0.43,inactive
PROP1,1,-0.18,inactive
PROP1,1,0.08,inactive
PROP1,1,0.19,inactive
PROP1,1,0.26,inactive
ZNF566,1,0.95,inactive
ZNF566,1,0.26,inactive
ZNF566,1,-0.04,inactive
ZNF566,1,0.32,inactive
PKHD1L1,1,-0.19,inactive
PKHD1L1,1,-0.47,inactive
PKHD1L1,1,0.11,inactive
PKHD1L1,1,-0.51,inactive
METTL23,1,-0.43,inactive
METTL23,1,-0.56,inactive
METTL23,1,-0.35,inactive
METTL23,1,-0.77,inactive

Targets listed so far whose gene name begins with M or m:
target gene,reagent,TNF reporter robust z-score,Call
METTL23,1,-0.43,inactive
METTL23,1,-0.56,inactive
METTL23,1,-0.35,inactive
METTL23,1,-0.77,inactive

The list goes on.
target gene,reagent,TNF reporter robust z-score,Call
GRM2,1,0.02,inactive
GRM2,1,0.4,inactive
GRM2,1,0.27,inactive
GRM2,1,2.25,inactive
RESF1,1,0.08,inactive
RESF1,1,0.88,inactive
RESF1,1,0.57,inactive
RESF1,1,0.75,inactive
GPRIN1,1,-0.26,inactive
GPRIN1,1,-0.22,inactive
GPRIN1,1,-0.53,inactive
GPRIN1,1,-1.33,inactive
GAGE4,1,0.04,inactive
GAGE4,1,-0.17,inactive
GAGE4,1,0.37,inactive
MYADM,1,-0.17,inactive
MYADM,1,-0.51,inactive
MYADM,1,1.04,inactive
MYADM,1,1.71,inactive
OXR1,1,-1.15,inactive
OXR1,1,1.01,inactive
OXR1,1,-0.31,inactive
OXR1,1,1.29,inactive
ACTA2,1,-0.81,inactive
ACTA2,1,-1.41,inactive
ACTA2,1,-1.36,inactive
ACTA2,1,-0.64,inactive
TMEM130,1,0,inactive
TMEM130,1,0.12,inactive
TMEM130,1,-0.8,inactive
TMEM130,1,1.11,inactive
CT45A3,1,0.85,inactive
CT45A3,1,3.49,active
CT45A3,1,2.81,active
CT45A3,1,5.31,active
CT45A3,2,2.46,inactive
CT45A3,2,3.1,active
CT45A3,2,1.66,inactive
CT45A3,2,4.13,active
AMMECR1L,1,-0.34,inactive
AMMECR1L,1,0.79,inactive
AMMECR1L,1,-0.86,inactive
AMMECR1L,1,-1.06,inactive
DAPL1,1,1.54,inactive
DAPL1,1,3.56,active
DAPL1,1,3.52,active
DAPL1,1,3.3,active
